This is an account of results in article PMC4029989.

Amino acid sequences for entries named in this document (tags omitted). Residues count along the entry.
UniProt P02769, 25-607: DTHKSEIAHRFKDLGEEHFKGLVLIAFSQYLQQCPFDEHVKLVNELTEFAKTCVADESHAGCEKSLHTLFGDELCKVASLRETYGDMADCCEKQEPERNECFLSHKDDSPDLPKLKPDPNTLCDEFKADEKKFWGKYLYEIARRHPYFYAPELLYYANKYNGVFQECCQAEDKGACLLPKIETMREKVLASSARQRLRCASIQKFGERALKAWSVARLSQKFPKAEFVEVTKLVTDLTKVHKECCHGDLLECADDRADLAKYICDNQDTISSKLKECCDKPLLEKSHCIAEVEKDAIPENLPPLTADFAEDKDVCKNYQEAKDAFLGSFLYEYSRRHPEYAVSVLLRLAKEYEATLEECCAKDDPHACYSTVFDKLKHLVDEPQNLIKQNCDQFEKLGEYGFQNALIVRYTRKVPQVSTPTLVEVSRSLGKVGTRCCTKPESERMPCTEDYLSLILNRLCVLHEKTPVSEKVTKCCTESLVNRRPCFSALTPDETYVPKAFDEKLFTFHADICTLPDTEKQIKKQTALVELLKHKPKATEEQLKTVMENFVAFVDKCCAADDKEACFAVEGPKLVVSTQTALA

Data set [1] addresses Bovine serum albumin (BSA) (Bos taurus) (UniProt P02769). The data set can be described thus: flow cytometry bead binding. As to conditions: relatively weak / minimal cross-reactivity; PBS binding buffer (SELEX with 0.1 mg/mL salmon sperm DNA and 1 mg/mL BSA, 37 °C); Kd assay on beads in binding buffer, room temperature, 30 min; pH not stated; commercial protein; label: FITC; single-stranded DNA.

In the next data set the test system is Trypsin. The data set can be described thus: flow cytometry bead binding. To be noted: relatively weak; PBS binding buffer (SELEX with 0.1 mg/mL salmon sperm DNA and 1 mg/mL BSA, 37 °C); Kd assay on beads in binding buffer, room temperature, 30 min; pH not stated; commercial protein; label: FITC; single-stranded DNA.

For at least one entry, the source does not settle the construct or the ends of the probe. A weaker result is weaker than the reference pair of the same experiment.

In the case of “CCGCCCAAATCCCTAAGAGAAGACTGTAATGACATCAAACCAGACACACTACACACGCA [B1-4]”, the binding result (in data set [1]; in the data set on Trypsin) was “binds more weakly” each time.
